According to the supplement of paper PMC10849652:
Some of the results follow.

Chains of the proteins cited; added tags and fusions are not shown. Lines headed by an entry give the natural chain unless they say otherwise; changes in a name come on top.
UniProt Q86TN4: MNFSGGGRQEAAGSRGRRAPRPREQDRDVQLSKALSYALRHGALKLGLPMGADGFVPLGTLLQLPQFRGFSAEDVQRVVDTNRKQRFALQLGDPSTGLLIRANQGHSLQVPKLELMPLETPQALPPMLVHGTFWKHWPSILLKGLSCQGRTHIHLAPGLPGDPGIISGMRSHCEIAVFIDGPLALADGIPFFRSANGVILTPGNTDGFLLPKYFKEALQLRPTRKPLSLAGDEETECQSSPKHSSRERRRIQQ
UniProt Q7Z392: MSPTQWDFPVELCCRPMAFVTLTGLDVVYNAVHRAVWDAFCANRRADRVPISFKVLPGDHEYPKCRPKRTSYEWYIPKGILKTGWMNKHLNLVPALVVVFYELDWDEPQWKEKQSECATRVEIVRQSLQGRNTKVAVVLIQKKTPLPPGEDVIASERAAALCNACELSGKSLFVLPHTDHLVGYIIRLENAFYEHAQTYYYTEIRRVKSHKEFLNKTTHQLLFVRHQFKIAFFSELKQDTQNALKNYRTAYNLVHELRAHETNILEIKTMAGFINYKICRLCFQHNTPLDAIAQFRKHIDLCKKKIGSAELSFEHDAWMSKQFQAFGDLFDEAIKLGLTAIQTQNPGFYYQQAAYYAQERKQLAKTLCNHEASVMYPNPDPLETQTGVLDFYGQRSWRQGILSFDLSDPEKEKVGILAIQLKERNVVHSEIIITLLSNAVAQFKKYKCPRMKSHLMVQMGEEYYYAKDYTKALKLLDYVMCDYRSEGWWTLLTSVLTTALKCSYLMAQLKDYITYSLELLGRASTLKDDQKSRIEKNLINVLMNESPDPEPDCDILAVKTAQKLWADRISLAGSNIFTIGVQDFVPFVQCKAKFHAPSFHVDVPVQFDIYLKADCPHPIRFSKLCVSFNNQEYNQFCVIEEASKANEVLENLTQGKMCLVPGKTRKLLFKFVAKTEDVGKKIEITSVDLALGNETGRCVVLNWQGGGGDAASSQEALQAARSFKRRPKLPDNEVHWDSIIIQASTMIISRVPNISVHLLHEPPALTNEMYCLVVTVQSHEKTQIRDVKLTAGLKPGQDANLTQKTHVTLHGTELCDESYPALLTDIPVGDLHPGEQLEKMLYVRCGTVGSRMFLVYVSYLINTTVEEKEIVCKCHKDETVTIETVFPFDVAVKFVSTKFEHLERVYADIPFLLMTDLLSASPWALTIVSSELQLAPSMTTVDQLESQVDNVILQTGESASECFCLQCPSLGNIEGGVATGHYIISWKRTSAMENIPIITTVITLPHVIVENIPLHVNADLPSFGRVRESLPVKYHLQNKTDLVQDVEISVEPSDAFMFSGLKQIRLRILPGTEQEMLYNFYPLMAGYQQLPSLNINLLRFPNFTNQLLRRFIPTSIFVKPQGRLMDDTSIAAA
UniProt Q15025: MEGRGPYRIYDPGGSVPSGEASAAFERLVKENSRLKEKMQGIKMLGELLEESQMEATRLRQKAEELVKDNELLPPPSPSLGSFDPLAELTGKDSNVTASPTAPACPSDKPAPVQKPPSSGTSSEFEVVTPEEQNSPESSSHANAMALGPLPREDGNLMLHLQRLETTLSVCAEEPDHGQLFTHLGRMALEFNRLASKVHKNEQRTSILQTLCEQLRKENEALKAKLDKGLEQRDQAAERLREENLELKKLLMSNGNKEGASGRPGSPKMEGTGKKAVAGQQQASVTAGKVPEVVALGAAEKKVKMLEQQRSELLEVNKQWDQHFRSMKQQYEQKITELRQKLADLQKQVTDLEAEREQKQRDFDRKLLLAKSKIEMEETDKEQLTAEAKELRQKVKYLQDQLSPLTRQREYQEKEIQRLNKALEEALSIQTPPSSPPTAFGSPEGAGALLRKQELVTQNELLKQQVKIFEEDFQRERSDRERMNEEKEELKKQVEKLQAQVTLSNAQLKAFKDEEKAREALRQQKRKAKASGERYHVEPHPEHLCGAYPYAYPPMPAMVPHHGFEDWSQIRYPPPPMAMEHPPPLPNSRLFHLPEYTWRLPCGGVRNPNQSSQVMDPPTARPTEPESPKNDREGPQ
UniProt P06753, whole entry, looked up: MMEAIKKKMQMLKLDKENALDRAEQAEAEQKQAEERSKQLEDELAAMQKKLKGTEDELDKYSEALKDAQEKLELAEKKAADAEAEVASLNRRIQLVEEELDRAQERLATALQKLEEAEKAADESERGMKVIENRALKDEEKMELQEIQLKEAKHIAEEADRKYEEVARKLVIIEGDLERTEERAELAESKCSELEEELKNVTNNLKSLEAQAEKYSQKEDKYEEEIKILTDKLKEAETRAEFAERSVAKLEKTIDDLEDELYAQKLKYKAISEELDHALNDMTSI
UniProt Q13625: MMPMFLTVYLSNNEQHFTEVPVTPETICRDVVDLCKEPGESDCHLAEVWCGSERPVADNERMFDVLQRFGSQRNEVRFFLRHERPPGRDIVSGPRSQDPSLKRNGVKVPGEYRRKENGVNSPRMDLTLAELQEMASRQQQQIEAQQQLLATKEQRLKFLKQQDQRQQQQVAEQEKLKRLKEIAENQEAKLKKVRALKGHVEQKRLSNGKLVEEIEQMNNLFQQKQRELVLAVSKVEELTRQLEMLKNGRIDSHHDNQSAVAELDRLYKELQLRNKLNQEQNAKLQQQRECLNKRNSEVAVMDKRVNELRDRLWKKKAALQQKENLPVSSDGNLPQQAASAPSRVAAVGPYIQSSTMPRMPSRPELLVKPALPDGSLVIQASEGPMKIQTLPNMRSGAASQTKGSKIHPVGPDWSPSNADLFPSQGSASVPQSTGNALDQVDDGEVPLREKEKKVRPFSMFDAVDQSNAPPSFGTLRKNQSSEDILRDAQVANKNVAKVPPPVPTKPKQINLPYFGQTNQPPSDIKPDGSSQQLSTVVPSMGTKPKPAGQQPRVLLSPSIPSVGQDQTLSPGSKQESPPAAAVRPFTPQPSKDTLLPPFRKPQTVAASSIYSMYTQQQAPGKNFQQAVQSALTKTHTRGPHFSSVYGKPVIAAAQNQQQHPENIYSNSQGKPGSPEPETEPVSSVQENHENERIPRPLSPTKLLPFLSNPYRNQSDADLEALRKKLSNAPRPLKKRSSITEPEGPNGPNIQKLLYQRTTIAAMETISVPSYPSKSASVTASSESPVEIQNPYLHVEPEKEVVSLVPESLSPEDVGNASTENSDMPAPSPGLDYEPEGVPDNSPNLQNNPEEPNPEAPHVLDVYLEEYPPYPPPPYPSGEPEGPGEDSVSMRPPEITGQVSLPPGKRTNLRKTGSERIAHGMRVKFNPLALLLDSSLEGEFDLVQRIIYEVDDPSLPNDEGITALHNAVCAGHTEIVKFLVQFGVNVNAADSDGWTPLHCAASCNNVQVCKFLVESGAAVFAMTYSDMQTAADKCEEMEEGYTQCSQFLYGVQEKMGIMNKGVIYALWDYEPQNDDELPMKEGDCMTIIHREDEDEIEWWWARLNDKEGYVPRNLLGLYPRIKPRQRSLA
UniProt Q629K1: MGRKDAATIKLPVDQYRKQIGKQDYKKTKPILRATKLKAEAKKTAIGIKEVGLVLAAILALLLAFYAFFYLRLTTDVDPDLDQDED
UniProt Q9UPQ9, whole entry, looked up: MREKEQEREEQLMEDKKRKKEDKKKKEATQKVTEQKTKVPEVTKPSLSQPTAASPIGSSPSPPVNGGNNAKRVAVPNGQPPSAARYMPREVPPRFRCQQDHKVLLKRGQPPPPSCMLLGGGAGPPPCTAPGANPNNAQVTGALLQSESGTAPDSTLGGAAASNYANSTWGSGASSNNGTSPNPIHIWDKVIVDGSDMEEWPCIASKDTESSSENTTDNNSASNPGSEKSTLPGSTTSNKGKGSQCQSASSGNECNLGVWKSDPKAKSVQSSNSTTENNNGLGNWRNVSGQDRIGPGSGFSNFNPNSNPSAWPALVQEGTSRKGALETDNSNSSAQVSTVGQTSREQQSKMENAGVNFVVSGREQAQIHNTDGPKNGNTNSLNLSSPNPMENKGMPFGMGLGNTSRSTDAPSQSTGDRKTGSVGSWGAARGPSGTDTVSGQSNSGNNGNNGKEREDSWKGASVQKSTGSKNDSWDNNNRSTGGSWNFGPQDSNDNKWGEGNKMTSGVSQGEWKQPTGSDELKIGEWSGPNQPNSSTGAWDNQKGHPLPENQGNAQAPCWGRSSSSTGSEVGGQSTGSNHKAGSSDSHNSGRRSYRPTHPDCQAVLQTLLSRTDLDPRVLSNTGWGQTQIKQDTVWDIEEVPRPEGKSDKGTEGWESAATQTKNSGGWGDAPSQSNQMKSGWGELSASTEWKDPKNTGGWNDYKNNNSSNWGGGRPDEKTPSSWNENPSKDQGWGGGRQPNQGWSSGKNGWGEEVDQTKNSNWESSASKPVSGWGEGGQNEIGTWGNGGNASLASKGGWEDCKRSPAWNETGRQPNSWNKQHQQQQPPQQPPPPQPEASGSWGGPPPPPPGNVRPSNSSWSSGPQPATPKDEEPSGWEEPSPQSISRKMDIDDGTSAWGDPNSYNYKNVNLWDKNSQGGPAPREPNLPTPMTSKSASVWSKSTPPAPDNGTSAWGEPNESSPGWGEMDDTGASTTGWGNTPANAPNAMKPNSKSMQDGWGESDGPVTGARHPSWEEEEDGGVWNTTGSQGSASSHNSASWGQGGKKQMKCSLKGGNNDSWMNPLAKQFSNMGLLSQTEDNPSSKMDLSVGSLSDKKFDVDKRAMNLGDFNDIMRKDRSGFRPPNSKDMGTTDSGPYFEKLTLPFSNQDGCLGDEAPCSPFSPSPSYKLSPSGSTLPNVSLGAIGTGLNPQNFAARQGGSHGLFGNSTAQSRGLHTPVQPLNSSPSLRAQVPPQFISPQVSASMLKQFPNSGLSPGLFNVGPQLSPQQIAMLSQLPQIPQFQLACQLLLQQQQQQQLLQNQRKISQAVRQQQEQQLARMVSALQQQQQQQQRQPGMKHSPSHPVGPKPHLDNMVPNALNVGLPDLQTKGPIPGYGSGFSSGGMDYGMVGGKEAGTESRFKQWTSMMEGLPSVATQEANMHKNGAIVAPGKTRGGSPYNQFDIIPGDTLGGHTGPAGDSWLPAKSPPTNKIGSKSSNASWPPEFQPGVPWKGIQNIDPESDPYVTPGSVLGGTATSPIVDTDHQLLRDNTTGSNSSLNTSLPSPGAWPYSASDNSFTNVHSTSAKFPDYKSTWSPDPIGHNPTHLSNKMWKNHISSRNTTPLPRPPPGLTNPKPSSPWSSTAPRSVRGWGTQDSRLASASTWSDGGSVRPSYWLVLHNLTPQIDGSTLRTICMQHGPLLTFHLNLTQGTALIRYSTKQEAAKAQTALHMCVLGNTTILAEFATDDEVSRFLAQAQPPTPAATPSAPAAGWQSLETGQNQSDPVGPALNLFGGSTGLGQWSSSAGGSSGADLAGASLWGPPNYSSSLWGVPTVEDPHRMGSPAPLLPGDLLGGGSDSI
UniProt Q9C035: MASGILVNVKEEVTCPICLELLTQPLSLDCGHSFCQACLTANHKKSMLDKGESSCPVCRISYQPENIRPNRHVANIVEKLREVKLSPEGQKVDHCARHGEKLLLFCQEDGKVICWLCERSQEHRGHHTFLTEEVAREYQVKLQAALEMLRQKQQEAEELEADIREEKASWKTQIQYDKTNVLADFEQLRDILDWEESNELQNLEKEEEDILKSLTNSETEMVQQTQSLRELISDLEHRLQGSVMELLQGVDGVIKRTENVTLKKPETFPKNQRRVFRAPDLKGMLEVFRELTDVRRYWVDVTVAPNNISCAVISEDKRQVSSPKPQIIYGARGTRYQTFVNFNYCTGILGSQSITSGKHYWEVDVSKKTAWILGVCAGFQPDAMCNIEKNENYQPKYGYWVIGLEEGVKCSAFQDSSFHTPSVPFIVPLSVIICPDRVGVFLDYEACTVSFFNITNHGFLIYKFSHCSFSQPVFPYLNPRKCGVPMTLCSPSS
UniProt O43399: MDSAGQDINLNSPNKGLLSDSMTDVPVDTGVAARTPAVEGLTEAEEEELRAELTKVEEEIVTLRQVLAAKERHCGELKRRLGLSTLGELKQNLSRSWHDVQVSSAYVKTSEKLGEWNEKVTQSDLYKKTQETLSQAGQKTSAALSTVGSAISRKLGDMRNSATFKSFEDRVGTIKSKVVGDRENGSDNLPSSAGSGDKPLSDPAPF
UniProt O60784, whole entry, looked up: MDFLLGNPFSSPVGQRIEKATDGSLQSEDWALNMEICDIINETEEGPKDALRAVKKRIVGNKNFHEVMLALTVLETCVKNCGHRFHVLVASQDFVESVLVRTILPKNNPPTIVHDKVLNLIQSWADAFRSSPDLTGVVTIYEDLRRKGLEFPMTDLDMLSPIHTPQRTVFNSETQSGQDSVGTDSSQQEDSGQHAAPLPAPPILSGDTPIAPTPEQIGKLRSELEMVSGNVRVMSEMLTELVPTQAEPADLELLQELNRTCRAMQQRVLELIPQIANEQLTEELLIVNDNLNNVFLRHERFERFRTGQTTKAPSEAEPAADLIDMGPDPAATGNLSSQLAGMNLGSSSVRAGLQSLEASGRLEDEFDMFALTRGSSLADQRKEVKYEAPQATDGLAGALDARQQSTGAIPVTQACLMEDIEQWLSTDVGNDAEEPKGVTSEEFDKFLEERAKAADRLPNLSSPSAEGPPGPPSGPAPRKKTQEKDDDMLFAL

What was measured:
Assay in all cases: log2 fold change, soluble protein after heating vs DMSO (PISA); higher = thermal stabilisation; K562 cells, 10 uM, 30 min; active = over 0.2 and 3.5 SD of the protein, either way, in both replicates (recomputed)
[1] = compound: CC1=C(C=C(C=C1)NC(=O)C2=CC(=CC=C2)C(C)(C)C#N)NC3=CC4=C(C=C3)N=CN(C4=O)C
Procedure, shortened: (§1)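 Values are thermal stability changes relative to control samples and are taken from duplicates. They are stated as log2 fold changes. Before quantification by TMTpro 16plex LC-MS/MS with equalised channel sums, K562 cells at 2×10^6 cells/mL were treated with 10 μM compound for 30 min, heated in aliquots for 3 min across 48°C-58°C, pooled, extracted in PBS with 0.5% NP-40 at 4°C, and centrifuged at 21,000xg for 90 min to give the soluble supernatant.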

[2] = compound: CC1=C(C=C(C=C1)NC(=O)C2=CC(=CC=C2)N(C)C)NC(=O)C3=CC=C(C=C3)O
Procedure, shortened: as §1

[3] = compound: CC1=NC(=CC=C1)C2=C(N=C(N2)C(C)(C)C)C3=CC4=NC=CN=C4C=C3
Procedure, shortened: as §1

[4] = compound: CCCc1cc(C)[nH]c(=O)c1CNC(=O)c1cc(-c2ccnc(N3CCN(C)CC3)c2)cc2c1cnn2C(C)C
Procedure, shortened: as §1

[5] = compound: CCN(CC)Cc1ccc2cc(COC(=O)Nc3ccc(C(=O)NO)cc3)ccc2c1 [givinostat]
Procedure, shortened: as §1

[6] = compound: CC1=CC=C(C=C1)SC2=C3C=C(SC3=CN=C2)C(=O)N
Procedure, shortened: as §1

[7] = compound: CCCCN(Cc1ccc(C(=O)NO)cc1)C(=O)Nc1ccccc1 [Nexturastat A]
Procedure, shortened: as §1

[8] = compound: CCCS(=O)(=O)Nc1ccc(F)c(C(=O)c2c[nH]c3ncc(-c4ccc(Cl)cc4)cc23)c1F [vemurafenib]
Procedure, shortened: as §1

[9] = compound: CCCS(=O)(=O)Nc1ccc(F)c(C(=O)c2c[nH]c3ncc(Cl)cc23)c1F
Procedure, shortened: as §1

[10] = compound: CCN(CCCOc1ccc2c(Nc3cc(CC(=O)Nc4cccc(F)c4)[nH]n3)ncnc2c1)CCOP(=O)(O)O [barasertib]
Procedure, shortened: as §1

Measured: log2 fold change

TRPT1 isoform 4 (UniProt Q86TN4)
inactive: [2] 0.136 | [3] -0.008 | [4] 0.029 | [5] 0.179
active: [1] -1.08

TRAPPC11 (UniProt Q7Z392)
inactive: [1] 0.098 | [2] 0.01 | [6] -0.014 | [3] -0.053 | [7] 0.046 | [8] 0.033 | [9] 0.025 | [4] -0.012 | [5] 0.037 | [10] 0.025

TNIP1 (UniProt Q15025)
inactive: [1] -0.083 | [2] -0.04 | [6] -0.115 | [7] -0.081 | [9] 0.12 | [4] 0.213 | [5] 0.193 | [10] 0.051

TPM3 isoform 4 (UniProt P06753)
inactive: [1] -0.033 | [2] -0.002 | [6] -0.009 | [3] -0.004 | [7] -0.174 | [8] -0.05 | [9] -0.086 | [4] -0.03 | [5] -0.077 | [10] -0.006

TSC2 (UniProt P49815)
inactive: [1] -0.09 | [2] 0.004 | [6] -0.076 | [3] -0.139 | [7] 0.173 | [9] 0.098 | [4] -0.036 | [5] -0.043 | [10] -0.015

TP53BP2 isoform 3 (UniProt Q13625)
inactive: [1] 0.018 | [2] 0.018 | [6] 0.008 | [3] -0.031 | [7] 0.061 | [8] 0.003 | [9] -0.002 | [5] 0.113 | [10] -0.115

TRMT10C (UniProt Q7L0Y3)
inactive: [1] 0.013 | [2] -0.051 | [6] 0.017 | [3] 0.007 | [7] -0.095 | [8] 0.015 | [9] 0.042 | [4] -0.013 | [5] -0.022 | [10] 0.041

TRIQK (UniProt Q629K1)
inactive: [1] -0.022 | [2] -0.007 | [3] -0.173 | [7] -0.028 | [4] 0.014 | [10] -0.041

TNRC6B (UniProt Q9UPQ9)
inactive: [1] -0.509 | [6] -0.059 | [3] -0.112 | [7] 0.118 | [9] -0.02 | [5] -0.055 | [10] -0.143

Reprinted from the listing (4 entries):
TP53BP2 isoform 3 (UniProt Q13625)
inactive: [1] 0.018 | [2] 0.018 | [6] 0.008 | [3] -0.031 | [7] 0.061 | [8] 0.003 | [9] -0.002 | [5] 0.113 | [10] -0.115

TRMT10C (UniProt Q7L0Y3)
inactive: [1] 0.013 | [2] -0.051 | [6] 0.017 | [3] 0.007 | [7] -0.095 | [8] 0.015 | [9] 0.042 | [4] -0.013 | [5] -0.022 | [10] 0.041

TRIQK (UniProt Q629K1)
inactive: [1] -0.022 | [2] -0.007 | [3] -0.173 | [7] -0.028 | [4] 0.014 | [10] -0.041

TNRC6B (UniProt Q9UPQ9)
inactive: [1] -0.509 | [6] -0.059 | [3] -0.112 | [7] 0.118 | [9] -0.02 | [5] -0.055 | [10] -0.143

(next part)

TRIM5 (UniProt Q9C035)
inactive: [1] -0.063 | [2] -0.197 | [7] 0.033 | [8] -0.044 | [5] 0.119

TRIO (UniProt O75962)
inactive: [1] -0.11 | [2] -0.095 | [3] 0.108 | [7] -0.044 | [4] 0.028 | [5] 0.261 | [10] 0.052

TRIM21 (UniProt P19474)
inactive: [6] 0.047 | [9] 0.014 | [4] -0.275 | [5] -0.016 | [10] 0.061

TPD52L2 isoform 3 (UniProt O43399)
inactive: [7] -0.021 | [8] -0.028 | [4] -0.283

TSC1 (UniProt Q92574)
inactive: [2] 0.102 | [6] -0.47 | [3] -0.044 | [8] 0.045 | [9] 0.138 | [5] 0.117

TOM1 (UniProt O60784)
inactive: [1] 0.058 | [3] -0.022 | [4] -0.015 | [5] -0.09 | [10] -0.039
active: [7] 0.504
